Results on seven substances are retold here after patent publication US20230227838A1, “ENHANCED CELL SURVIVAL AGAINST BIOTIC AND ABIOTIC STRESSES THROUGH SALICYLICK ACID-INDUCED NPR1 CONDENSATES” (priority 2020, published 2023).

Amino acid sequences for entries named in this document (tags omitted). A change or cut given only in a name is not applied to a line headed by its entry.
UniProt P93002: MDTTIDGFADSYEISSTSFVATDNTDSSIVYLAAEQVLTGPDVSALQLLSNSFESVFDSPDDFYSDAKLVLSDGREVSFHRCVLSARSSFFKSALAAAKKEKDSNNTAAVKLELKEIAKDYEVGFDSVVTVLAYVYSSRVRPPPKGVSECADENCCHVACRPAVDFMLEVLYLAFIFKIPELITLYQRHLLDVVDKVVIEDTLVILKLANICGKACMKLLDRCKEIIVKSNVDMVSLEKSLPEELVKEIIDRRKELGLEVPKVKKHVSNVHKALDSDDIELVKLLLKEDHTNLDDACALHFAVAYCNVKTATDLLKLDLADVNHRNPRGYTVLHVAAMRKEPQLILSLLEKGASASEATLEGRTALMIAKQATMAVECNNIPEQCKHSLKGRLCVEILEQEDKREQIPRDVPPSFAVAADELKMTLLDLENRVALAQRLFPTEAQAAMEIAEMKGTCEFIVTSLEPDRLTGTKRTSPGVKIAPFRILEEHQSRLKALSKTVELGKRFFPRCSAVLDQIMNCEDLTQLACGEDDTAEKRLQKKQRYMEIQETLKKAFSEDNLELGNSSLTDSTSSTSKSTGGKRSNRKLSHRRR

These are yes or no findings as the source states them, for the method shown. In cells and extracts the contact can be indirect. Some results given as binding are weak or reduced against the parent protein; the word gives no strength. For some of these results: Sequences can lack the tags named with a protein.

The target of assay [1] is T1, Myc-CUL3 (Arabidopsis thaliana, UniProt Q9ZVH4 1-732).
T1 construct: also called AtCUL3A (AT1G26830); not shown: N-terminal Myc tag (pEG203)
T1 sequence (looked up): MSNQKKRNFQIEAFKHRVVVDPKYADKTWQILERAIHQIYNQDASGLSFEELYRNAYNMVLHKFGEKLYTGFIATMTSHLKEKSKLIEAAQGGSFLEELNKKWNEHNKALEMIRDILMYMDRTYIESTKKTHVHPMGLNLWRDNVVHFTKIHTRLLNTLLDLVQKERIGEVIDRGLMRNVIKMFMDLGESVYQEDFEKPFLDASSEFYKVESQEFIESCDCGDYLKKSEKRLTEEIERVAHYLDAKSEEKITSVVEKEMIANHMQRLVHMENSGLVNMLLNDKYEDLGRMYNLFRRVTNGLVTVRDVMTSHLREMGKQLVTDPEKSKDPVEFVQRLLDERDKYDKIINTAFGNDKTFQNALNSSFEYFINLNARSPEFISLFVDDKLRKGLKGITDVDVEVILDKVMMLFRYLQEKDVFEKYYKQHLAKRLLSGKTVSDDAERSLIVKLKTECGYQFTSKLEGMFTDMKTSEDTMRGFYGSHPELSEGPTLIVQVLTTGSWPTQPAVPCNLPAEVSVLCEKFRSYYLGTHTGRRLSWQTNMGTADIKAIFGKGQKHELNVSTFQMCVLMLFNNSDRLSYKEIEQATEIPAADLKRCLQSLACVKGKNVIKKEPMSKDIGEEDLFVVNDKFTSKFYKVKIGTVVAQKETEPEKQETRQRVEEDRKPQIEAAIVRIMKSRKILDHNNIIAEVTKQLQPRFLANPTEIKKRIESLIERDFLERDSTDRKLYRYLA
Briefly: co-IP, N. benthamiana.

Assay [2] concerns the target BTB-HA (Arabidopsis thaliana) (UniProt P93002). Briefly: co-IP, co-expression in N. benthamiana.
Assay [3] deals with T1, Myc-CUL3. In words: GST pull-down, co-expression in E. coli.
Assay [4] concerns the target T2, endogenous CUL3 in Arabidopsis (Arabidopsis thaliana) (UniProt Q9ZVH4).
T2 sequence (looked up): T1 sequence (looked up)
Briefly: co-IP from transgenic Arabidopsis.

The target of assay [5] is T1, Myc-CUL3. Briefly: co-IP, N. benthamiana, 1 mM SA.
Assay [6] concerns the target T2, endogenous CUL3 in Arabidopsis (Arabidopsis thaliana). In words: co-IP from transgenic Arabidopsis (FIG. 4B).

Regarding BTB-HA (from UniProt P93002 65-144), the binding result with Myc-CUL3 [1] is “binds”. On to CTD-GFP (from UniProt P93002 365-593), for which the binding result in assay [2] was “binds”. Take GST-NPR1 (from UniProt P93002 1-593): in the assay with Myc-CUL3 [3], the binding entry is on record as “binds”. With NPR1-GFP (from UniProt P93002 1-593), the binding result in assay [4] was “binds”. nls-HA (from UniProt P93002 1-593): in the assay with Myc-CUL3 [5], the binding result is “binds”. For the substance sim3-GFP (from UniProt P93002 1-593), the binding result in assay [6] is reported as “binds”.

In the case of ΔCTD-HA (from UniProt P93002 1-364), the binding entry in the assay with Myc-CUL3 [1] was “binds”.
